Source: the supplement of paper PMC10849652
The other results are listed elsewhere or left out.

By UniProt entry, the sequences of proteins in these tests, tags left out. Where a name states a change or a piece, a line headed by the entry shows the natural chain unless it says otherwise.
UniProt Q9ULH1: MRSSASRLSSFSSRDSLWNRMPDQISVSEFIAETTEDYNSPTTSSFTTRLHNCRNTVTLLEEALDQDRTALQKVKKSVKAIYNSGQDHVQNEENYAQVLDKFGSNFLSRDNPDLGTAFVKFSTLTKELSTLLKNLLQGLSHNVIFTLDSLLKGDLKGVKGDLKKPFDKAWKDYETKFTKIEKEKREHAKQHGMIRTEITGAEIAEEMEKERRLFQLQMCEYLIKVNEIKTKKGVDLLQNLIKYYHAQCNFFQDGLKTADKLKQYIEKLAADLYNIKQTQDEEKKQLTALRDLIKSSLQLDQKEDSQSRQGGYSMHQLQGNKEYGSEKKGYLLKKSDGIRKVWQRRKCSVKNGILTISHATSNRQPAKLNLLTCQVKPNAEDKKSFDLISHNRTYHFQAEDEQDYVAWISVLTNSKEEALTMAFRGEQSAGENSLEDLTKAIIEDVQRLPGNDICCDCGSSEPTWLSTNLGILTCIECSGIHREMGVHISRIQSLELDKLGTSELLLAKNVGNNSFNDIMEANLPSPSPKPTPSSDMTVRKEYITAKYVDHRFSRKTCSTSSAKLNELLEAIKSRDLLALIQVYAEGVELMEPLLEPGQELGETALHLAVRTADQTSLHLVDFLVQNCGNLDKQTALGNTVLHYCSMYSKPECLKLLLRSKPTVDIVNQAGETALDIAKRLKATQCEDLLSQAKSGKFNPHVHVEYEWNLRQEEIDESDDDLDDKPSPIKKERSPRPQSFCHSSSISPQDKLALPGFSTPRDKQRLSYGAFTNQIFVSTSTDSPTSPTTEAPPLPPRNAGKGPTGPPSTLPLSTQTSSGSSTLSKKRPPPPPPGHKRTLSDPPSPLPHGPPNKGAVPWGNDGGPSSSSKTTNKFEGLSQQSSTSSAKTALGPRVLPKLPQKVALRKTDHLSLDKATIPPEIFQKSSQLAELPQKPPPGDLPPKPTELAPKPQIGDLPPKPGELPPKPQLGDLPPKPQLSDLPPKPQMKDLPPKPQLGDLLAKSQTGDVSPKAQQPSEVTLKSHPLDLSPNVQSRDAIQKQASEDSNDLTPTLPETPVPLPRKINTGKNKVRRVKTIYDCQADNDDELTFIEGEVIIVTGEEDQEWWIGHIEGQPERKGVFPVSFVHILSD
UniProt P10398: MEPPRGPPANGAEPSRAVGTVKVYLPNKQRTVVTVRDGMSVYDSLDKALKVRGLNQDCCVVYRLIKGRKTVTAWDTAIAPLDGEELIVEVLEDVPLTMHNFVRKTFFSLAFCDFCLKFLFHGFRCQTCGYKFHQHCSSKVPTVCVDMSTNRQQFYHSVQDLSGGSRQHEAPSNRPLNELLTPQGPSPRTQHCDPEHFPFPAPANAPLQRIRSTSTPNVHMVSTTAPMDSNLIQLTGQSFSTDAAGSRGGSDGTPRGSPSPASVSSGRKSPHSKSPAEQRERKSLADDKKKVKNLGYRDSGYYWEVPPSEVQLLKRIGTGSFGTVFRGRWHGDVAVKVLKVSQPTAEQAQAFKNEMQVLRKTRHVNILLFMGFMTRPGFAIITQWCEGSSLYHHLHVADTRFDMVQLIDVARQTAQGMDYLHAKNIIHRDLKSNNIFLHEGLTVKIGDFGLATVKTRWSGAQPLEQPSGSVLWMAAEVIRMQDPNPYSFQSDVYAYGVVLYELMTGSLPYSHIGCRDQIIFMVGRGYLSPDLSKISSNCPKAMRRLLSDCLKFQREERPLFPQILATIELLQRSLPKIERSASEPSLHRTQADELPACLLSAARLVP
UniProt P53367: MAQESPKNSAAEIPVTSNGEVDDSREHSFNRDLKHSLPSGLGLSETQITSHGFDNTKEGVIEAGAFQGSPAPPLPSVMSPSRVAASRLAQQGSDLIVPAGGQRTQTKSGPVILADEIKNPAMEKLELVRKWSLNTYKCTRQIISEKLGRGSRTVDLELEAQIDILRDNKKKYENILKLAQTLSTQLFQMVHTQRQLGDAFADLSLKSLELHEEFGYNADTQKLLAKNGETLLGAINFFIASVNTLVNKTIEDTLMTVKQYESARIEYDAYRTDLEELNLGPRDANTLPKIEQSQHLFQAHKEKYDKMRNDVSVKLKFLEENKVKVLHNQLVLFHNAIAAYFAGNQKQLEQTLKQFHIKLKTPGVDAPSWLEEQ
UniProt P02654: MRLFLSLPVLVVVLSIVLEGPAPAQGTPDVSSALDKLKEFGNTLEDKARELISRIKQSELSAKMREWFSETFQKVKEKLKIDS
UniProt P40616: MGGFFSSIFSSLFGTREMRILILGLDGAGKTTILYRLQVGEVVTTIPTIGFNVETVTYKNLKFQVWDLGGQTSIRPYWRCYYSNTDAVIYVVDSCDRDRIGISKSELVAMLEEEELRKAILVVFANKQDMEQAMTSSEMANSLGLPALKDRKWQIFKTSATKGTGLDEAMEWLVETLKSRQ
UniProt P07741: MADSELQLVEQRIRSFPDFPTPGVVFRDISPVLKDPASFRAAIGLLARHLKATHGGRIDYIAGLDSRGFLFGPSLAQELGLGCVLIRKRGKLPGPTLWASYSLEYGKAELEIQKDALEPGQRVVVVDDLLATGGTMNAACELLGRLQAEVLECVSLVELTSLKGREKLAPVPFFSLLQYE
UniProt P49407: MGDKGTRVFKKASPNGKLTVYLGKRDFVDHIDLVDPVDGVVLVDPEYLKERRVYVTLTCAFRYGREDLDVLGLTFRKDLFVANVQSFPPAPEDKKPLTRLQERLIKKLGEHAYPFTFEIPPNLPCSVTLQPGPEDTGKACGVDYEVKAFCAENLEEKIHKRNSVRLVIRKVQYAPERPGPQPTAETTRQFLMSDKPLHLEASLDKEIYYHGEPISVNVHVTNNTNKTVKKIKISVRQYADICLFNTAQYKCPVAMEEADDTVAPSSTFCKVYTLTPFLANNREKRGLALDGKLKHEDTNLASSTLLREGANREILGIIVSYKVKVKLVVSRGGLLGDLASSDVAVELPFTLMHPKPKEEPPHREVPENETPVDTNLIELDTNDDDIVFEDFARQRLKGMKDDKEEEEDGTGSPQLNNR
UniProt Q6NXE6: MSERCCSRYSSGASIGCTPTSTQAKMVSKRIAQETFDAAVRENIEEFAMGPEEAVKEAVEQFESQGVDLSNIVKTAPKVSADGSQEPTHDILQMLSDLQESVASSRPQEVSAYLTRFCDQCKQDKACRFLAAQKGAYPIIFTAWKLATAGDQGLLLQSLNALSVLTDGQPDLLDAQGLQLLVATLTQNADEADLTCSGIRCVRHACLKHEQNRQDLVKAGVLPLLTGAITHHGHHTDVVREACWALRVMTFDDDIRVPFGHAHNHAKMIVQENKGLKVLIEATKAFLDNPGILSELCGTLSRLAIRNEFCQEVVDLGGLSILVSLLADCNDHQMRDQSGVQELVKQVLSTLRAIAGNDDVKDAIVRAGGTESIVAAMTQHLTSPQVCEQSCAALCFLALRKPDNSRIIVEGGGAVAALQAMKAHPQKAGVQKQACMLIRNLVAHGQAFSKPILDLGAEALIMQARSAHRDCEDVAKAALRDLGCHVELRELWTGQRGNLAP
UniProt Q9BZZ5: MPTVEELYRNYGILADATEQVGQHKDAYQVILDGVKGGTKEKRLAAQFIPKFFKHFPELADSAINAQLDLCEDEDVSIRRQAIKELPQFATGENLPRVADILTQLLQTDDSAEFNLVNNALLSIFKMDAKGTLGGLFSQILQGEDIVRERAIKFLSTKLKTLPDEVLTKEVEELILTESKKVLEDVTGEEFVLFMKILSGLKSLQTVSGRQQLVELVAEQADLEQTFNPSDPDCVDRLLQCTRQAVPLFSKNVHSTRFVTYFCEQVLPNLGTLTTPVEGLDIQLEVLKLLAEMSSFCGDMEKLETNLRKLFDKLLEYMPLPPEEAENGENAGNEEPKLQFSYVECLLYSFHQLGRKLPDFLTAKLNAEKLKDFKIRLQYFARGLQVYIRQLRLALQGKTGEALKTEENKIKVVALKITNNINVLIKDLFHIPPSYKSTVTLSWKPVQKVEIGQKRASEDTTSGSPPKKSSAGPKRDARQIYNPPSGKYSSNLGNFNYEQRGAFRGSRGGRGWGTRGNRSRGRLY
UniProt O43182: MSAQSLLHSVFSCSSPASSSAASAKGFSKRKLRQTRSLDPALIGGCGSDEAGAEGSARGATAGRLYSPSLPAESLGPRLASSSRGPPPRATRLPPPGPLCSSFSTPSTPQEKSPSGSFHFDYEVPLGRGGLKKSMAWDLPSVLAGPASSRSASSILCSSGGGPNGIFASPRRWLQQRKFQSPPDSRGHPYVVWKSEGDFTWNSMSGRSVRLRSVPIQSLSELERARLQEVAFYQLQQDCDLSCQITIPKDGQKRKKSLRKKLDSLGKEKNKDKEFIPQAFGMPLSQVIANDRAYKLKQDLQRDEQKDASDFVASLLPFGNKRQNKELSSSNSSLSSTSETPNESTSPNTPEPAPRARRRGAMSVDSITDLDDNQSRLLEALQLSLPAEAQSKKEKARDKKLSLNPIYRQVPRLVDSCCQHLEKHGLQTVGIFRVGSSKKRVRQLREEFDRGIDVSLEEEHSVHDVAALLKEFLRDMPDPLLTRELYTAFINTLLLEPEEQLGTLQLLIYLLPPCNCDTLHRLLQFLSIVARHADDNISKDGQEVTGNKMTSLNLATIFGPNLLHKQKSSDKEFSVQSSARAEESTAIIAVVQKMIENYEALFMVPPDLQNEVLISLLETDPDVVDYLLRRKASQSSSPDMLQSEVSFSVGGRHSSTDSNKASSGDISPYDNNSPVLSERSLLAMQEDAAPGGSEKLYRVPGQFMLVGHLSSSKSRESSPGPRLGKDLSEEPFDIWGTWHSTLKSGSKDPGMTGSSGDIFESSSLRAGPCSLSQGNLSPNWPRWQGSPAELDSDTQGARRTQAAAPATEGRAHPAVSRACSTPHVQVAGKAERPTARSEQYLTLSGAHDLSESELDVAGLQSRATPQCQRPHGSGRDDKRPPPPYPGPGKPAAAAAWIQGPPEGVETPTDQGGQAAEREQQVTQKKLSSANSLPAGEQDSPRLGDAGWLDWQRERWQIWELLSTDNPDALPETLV
UniProt Q7Z2E3: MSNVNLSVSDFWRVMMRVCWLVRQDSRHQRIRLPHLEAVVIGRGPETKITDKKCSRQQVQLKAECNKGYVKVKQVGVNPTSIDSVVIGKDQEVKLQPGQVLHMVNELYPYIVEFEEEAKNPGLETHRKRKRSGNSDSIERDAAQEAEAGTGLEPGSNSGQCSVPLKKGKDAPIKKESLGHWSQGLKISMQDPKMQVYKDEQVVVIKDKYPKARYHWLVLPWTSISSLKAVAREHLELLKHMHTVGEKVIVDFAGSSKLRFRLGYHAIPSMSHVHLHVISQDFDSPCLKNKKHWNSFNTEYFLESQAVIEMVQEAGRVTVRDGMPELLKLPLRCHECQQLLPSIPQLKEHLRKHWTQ
UniProt O14727: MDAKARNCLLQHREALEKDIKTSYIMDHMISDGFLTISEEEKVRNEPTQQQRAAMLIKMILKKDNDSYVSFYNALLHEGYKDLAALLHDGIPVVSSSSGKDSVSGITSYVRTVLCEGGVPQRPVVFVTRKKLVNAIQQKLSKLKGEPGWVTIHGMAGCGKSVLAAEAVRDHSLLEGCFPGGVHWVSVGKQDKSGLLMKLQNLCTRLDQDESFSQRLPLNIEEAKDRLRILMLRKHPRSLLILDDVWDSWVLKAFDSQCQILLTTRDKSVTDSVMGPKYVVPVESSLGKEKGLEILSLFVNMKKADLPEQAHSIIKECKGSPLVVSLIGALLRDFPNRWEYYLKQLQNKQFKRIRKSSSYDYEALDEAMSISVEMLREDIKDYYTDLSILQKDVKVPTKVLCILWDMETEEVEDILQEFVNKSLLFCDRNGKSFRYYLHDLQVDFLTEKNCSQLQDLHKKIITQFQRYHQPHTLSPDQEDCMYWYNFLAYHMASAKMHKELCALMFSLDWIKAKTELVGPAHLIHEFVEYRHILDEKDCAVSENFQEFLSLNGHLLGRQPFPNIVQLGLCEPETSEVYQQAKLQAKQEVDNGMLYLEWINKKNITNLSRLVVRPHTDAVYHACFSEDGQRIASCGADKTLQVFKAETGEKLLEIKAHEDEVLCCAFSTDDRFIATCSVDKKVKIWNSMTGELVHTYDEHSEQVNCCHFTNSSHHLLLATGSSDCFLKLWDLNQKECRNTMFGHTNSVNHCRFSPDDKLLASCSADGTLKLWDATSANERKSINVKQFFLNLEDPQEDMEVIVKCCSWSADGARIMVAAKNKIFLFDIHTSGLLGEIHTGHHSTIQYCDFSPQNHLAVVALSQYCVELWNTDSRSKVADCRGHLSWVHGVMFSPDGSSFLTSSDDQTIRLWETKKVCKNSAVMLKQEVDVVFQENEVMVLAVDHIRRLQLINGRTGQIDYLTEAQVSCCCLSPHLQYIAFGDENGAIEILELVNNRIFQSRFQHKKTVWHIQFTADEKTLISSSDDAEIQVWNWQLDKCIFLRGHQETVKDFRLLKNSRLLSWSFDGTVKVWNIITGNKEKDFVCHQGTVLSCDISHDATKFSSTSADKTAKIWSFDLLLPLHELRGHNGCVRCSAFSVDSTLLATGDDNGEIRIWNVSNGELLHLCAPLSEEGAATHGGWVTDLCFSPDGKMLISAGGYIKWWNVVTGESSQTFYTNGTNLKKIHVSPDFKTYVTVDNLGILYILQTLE

Columns and labels:
Assay in all cases: log2 fold change, soluble protein after heating vs DMSO (PISA); higher = thermal stabilisation; K562 lysate, 10 uM; active = over 0.2 and 3.5 SD of the protein, either way, in both replicates (recomputed)
nilotinib = compound: Cc1cn(-c2cc(NC(=O)c3ccc(C)c(Nc4nccc(-c5cccnc5)n4)c3)cc(C(F)(F)F)c2)cn1 [nilotinib]
In short: (§1)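 The values are log-two fold changes in thermal stability compared with solvent controls and come from duplicates. They were obtained by TMTpro 16plex LC-MS/MS, with channel sums equalised, on the supernatant after 21,000xg for 90 min. That supernatant came from crude K562 extract at 1 mg/mL protein treated with 10 μM compound for 30 min, heated for 3 min across 48°C-58°C, pooled and brought to 0.5% NP-40 at 4°C.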

[1] = compound: Cc1nc(Nc2n[nH]c3c2CN(C(=O)N[C@H](CN(C)C)c2ccccc2)C3(C)C)c2sccc2n1
In short: as §1

dasatinib = compound: Cc1nc(Nc2ncc(C(=O)Nc3c(C)cccc3Cl)s2)cc(N2CCN(CCO)CC2)n1 [dasatinib]
In short: as §1

[2] = compound: Cc1ncc(-c2ccnc(Nc3ccc(S(C)(=O)=O)cc3)n2)n1C(C)C
In short: as §1

[3] = compound: Cn1cc(-c2ccc3c(c2)CCN3C(=O)Cc2cccc(C(F)(F)F)c2)c2c(N)ncnc21
In short: as §1

quisinostat = compound: Cn1cc(CNCC2CCN(c3ncc(C(=O)NO)cn3)CC2)c2ccccc21 [quisinostat]
In short: as §1

tipifarnib = compound: Cn1cncc1[C@@](N)(c1ccc(Cl)cc1)c1ccc2c(c1)c(-c1cccc(Cl)c1)cc(=O)n2C [tipifarnib]
In short: as §1

[4] = compound: NC(=O)Nc1cc(-c2cccc(F)c2)sc1C(=O)N[C@H]1CCCNC1
In short: as §1

[5] = compound: NC(=O)c1cnc(N[C@@H]2CCCC[C@@H]2N)nc1Nc1cccc(-n2nccn2)c1
In short: as §1

[6] = compound: NC1(c2ccc(-c3nc4ccn5c(=O)[nH]nc5c4cc3-c3ccccc3)cc2)CCC1
In short: as §1

Target | log2 fold change (nilotinib) | log2 fold change [1] | log2 fold change (dasatinib) | log2 fold change [2] | log2 fold change [3] | log2 fold change (quisinostat) | log2 fold change (tipifarnib) | log2 fold change [4] | log2 fold change [5] | log2 fold change [6]
ARL2 (UniProt P36404) | inactive: 0.038 | inactive: -0.002 | inactive: -0.029 | inactive: -0.01 | inactive: 0.025 | inactive: -0.003 | inactive: 0.011 | inactive: 0.021 | inactive: 0.017 | inactive: 0.007
ARHGEF11 isoform 2 (UniProt O15085) | inactive: 0.01 | inactive: -0.015 | inactive: 0.051 | inactive: 0.001 | inactive: -0.004 | inactive: -0.01 | inactive: 0.002 | inactive: 0.053 | inactive: 0.031 | inactive: 0.03
ASAP1 isoform 2 (UniProt Q9ULH1) | inactive: 0.041 | inactive: 0.04 | inactive: 0.005 | inactive: -0.014 | inactive: 0.057 | inactive: -0.023 | inactive: -0.021 | inactive: 0.03 | inactive: 0.01 | inactive: 0.004
ARPP19 (UniProt H3BMD8) | inactive: 0.055 | inactive: -0.036 | inactive: 0.011 | inactive: 0.029 | inactive: -0.059 | inactive: -0.174 | inactive: -0.031 | inactive: -0.036 | inactive: -0.078 | inactive: -0.032
ARMCX3 (UniProt Q9UH62) | inactive: 0.023 | inactive: -0.028 | inactive: -0.107 | inactive: -0.003 | inactive: 0.067 | inactive: -0.057 | inactive: -0.008 | inactive: 0.04 | inactive: 0.008 | inactive: -0.002
APOBEC3G (UniProt Q9HC16) | inactive: -0.08 | inactive: -0.043 | inactive: 0.061 | inactive: 0.007 | inactive: 0.173 | inactive: -0.008 | inactive: 0 | inactive: 0.021 | inactive: 0.03 | inactive: -0.051
ARAF (UniProt P10398) | inactive: -0.005 | inactive: 0.018 | inactive: 0.16 | inactive: 0.022 | inactive: 0.02 | inactive: -0.069 | inactive: -0.023 | inactive: 0.011 | inactive: 0.018 | inactive: -0.012
ARFIP1 (UniProt P53367) | inactive: -0.057 | inactive: 0.038 | inactive: -0.002 | inactive: -0.013 | inactive: 0.082 | inactive: -0.002 | inactive: 0.01 | inactive: 0.011 | inactive: 0.019 | inactive: 0.045
ARID1B isoform 3 (UniProt Q8NFD5) | inactive: 0.001 | inactive: -0.015 | inactive: 0.02 | inactive: -0.062 | inactive: 0.032 | inactive: 0.09 | inactive: -0.011 | inactive: 0.041 | inactive: 0.011 | inactive: -0.007
APOC1 (UniProt P02654) | inactive: 0.008 | inactive: 0.034 | inactive: 0.039 | inactive: 0.01 | inactive: -0.046 | inactive: 0.068 | inactive: 0.242 | inactive: -0.02 | inactive: 0.018 | inactive: -0.077
ARHGEF10 (UniProt O15013) | inactive: 0.139 | inactive: -0.112 | inactive: -0.029 | inactive: -0.049 | inactive: -0.12 | inactive: -0.094 | inactive: -0.076 | inactive: 0.08 | inactive: -0.1 | inactive: -0.032
ARPIN isoform 2 (UniProt Q7Z6K5) | inactive: 0.009 | inactive: 0.014 | inactive: -0.133 | inactive: -0.025 | inactive: -0.174 | inactive: -0.034 | inactive: 0.024 | inactive: -0.004 | inactive: -0.01 | inactive: 0.081
ARL1 (UniProt P40616) | inactive: 0.092 | inactive: -0.074 | inactive: 0.026 | inactive: -0.118 | inactive: -0.016 | inactive: -0.082 | inactive: -0.268 | inactive: 0.01 | inactive: -0.001 | inactive: 0.005
APRT (UniProt P07741) | inactive: 0.011 | inactive: -0.03 | inactive: 0.006 | inactive: 0.023 | inactive: 0.007 | inactive: 0 | inactive: 0.007 | inactive: -0.021 | inactive: 0.018 | inactive: -0.002
APBA2 (UniProt Q99767) | inactive: -0.031 | inactive: -0.025 | inactive: -0.034 | inactive: 0.021 | inactive: 0.042 | inactive: -0.021 | inactive: 0.041 | inactive: 0.063 | inactive: 0 | inactive: -0.026
ARRB1 isoform 2 (UniProt P49407) | inactive: 0.014 | inactive: 0.054 | inactive: -0.09 | inactive: 0 | inactive: 0.037 | inactive: 0.058 | inactive: 0.084 | inactive: 0.196 | inactive: -0.011 | inactive: 0.004
ARMC6 (UniProt Q6NXE6) | inactive: -0.001 | inactive: -0.006 | inactive: -0.055 | inactive: -0.017 | inactive: 0.013 | inactive: -0.057 | inactive: 0 | inactive: 0.094 | inactive: 0.017 | inactive: -0.031
AP5M1 (UniProt Q9H0R1) | inactive: -0.04 | inactive: 0.007 | inactive: -0.001 | inactive: 0.011 | inactive: 0.029 | inactive: -0.08 | inactive: 0.024 | inactive: 0.039 | inactive: -0.016 | inactive: 0.092
ARHGEF6 (UniProt Q15052) | inactive: -0.054 | inactive: 0.018 | inactive: -0.019 | inactive: -0.116 | inactive: 0.005 | inactive: 0.009 | inactive: 0.134 | inactive: 0.062 | inactive: -0.048 | inactive: 0
ARG2 (UniProt P78540) | inactive: -0.045 | inactive: 0.008 | inactive: -0.024 | inactive: -0.035 | inactive: 0.002 | inactive: -0.071 | inactive: -0.057 | inactive: 0.021 | inactive: -0.002 | inactive: -0.015
ARHGAP45 isoform 2 (UniProt Q92619) | inactive: -0.003 | inactive: -0.002 | inactive: -0.047 | inactive: 0.048 | inactive: 0.028 | inactive: 0.013 | inactive: -0.036 | inactive: 0.011 | inactive: -0.003 | inactive: 0.015
ARFGAP1 (UniProt Q8N6T3) | inactive: 0.159 | inactive: 0.1 | inactive: -0.03 | inactive: -0.016 | inactive: -0.043 | inactive: -0.004 | active: -0.475 | inactive: 0.063 | inactive: -0.032 | inactive: -0.111
AP4S1 (UniProt Q9Y587) | inactive: 0.182 | inactive: -0.031 | inactive: 0.044 | inactive: -0.068 | inactive: 0.012 | inactive: 0.076 | inactive: 0.083 | inactive: 0.005 | inactive: -0.019 | inactive: 0.065
API5 (UniProt Q9BZZ5) | inactive: 0.007 | inactive: -0.021 | inactive: -0.002 | inactive: -0.017 | inactive: -0.02 | inactive: -0.043 | inactive: 0.015 | inactive: -0.005 | inactive: -0.021 | inactive: -0.032
ARHGAP6 (UniProt O43182) | inactive: -0.003 | inactive: -0.014 | inactive: -0.102 | inactive: 0 | inactive: 0.052 | inactive: -0.019 | inactive: 0.02 | inactive: 0.034 | inactive: -0.025 | inactive: -0.039
ARHGEF40 (UniProt Q8TER5) | inactive: -0.164 | inactive: 0.031 | inactive: 0.004 | inactive: -0.016 | inactive: 0.086 |  | inactive: 0.06 |  | inactive: 0.07 | inactive: 0.086
ARFIP1 isoform 2 (UniProt P53367) | inactive: -0.11 | inactive: 0.089 | inactive: -0.179 | inactive: 0.017 | inactive: -0.133 |  | inactive: 0.175 |  | inactive: 0.065 | 
APTX (UniProt Q7Z2E3) | inactive: -0.025 | inactive: -0.049 | inactive: -0.037 | inactive: 0.009 | inactive: -0.06 | inactive: -0.015 | inactive: 0.018 | inactive: 0.017 | inactive: -0.055 | inactive: -0.012
ARPC5 (UniProt O15511) | inactive: -0.022 | inactive: 0.015 | inactive: 0 | inactive: 0.027 | inactive: 0.024 | inactive: 0.009 | inactive: -0.003 | inactive: -0.022 | inactive: -0.019 | inactive: 0.008
APAF1 (UniProt O14727) | inactive: -0.013 | inactive: 0.116 | inactive: -0.036 | inactive: 0.025 | inactive: 0.073 | inactive: -0.091 | inactive: -0.026 | inactive: 0.052 | inactive: 0 | inactive: 0.026

An excerpt of these results, in markdown:

| Target | log2 fold change (nilotinib) | log2 fold change [1] | log2 fold change (dasatinib) | log2 fold change [2] | log2 fold change [3] | log2 fold change (quisinostat) | log2 fold change (tipifarnib) | log2 fold change [4] | log2 fold change [5] | log2 fold change [6] |
| --- | --- | --- | --- | --- | --- | --- | --- | --- | --- | --- |
| APRT (UniProt P07741) | inactive: 0.011 | inactive: -0.03 | inactive: 0.006 | inactive: 0.023 | inactive: 0.007 | inactive: 0 | inactive: 0.007 | inactive: -0.021 | inactive: 0.018 | inactive: -0.002 |
| APBA2 (UniProt Q99767) | inactive: -0.031 | inactive: -0.025 | inactive: -0.034 | inactive: 0.021 | inactive: 0.042 | inactive: -0.021 | inactive: 0.041 | inactive: 0.063 | inactive: 0 | inactive: -0.026 |
